The name of at least one read-out is uncertain.
Test system: P388 cancer cells
Assay: Tests of life-prolongation effects on cancered mice (P388, i.p.)
Assay type: in vivo
Conditions: 100 mg/kg; i.p. on first and fifth day; P388 in CDF mice
Experimental: 10^6 P388 cancer cells were grafted into groups of CDF mice. Each group consisted of six mice. On the first day and the fifth day, a sample to be tested was administered to the mice intraperitoneally. The life-prolongation effects were shown in terms of the ratio of the number of surviving days of the mice in the treated group to that in the control group (T/C %).

SMILES: O=c1ccccc(C2OCCc3ccccc32)c1O (stereo not shown) [IIb, 3-(1-isochromanyl)tropolone]
- Life-prolongation effects T/C %: 104%

Reference: US4656192A, “Tropolone derivatives, processes for the preparation thereof and the use thereof as anti-tumor agents” (Mect Corporation, priority 1984, dated 1987)
